Test results taken from PMC5537225, “Therapeutic efficacy of a respiratory syncytial virus fusion inhibitor” (Nature Communications, 2017).
Where two headings read alike, the source gives them in different places.

Tests used:
[1] = test system: rgRSV224 D489Y mutant strain; format: cell-based, respiratory syncytial virus; settings: mutant selected with JNJ-53718678
rgRSV224 = format: cell-based, respiratory syncytial virus

Cc1ccc(CCCO)c(NCc2ccc3nc(NCCCN4CCOCC4)n(Cc4nc(C)ccc4O)c3c2)c1 [TMC353121]
FC (fold change over wild-type strain) mutant strain D489Y [1]: 81 | EC50 (rgRSV224; mock-treated rgRSV224 during in vitro selection procedure, read-out: EC50 wild-type strain (untreated control)): 0.4 nM | EC50 (rgRSV224; read-out: EC50 parent strain (rgRSV224)): 0.13 nM
